The values that follow come from article PMC11284228.

By UniProt entry, the sequences of proteins in these tests, tags left out.
UniProt P06537: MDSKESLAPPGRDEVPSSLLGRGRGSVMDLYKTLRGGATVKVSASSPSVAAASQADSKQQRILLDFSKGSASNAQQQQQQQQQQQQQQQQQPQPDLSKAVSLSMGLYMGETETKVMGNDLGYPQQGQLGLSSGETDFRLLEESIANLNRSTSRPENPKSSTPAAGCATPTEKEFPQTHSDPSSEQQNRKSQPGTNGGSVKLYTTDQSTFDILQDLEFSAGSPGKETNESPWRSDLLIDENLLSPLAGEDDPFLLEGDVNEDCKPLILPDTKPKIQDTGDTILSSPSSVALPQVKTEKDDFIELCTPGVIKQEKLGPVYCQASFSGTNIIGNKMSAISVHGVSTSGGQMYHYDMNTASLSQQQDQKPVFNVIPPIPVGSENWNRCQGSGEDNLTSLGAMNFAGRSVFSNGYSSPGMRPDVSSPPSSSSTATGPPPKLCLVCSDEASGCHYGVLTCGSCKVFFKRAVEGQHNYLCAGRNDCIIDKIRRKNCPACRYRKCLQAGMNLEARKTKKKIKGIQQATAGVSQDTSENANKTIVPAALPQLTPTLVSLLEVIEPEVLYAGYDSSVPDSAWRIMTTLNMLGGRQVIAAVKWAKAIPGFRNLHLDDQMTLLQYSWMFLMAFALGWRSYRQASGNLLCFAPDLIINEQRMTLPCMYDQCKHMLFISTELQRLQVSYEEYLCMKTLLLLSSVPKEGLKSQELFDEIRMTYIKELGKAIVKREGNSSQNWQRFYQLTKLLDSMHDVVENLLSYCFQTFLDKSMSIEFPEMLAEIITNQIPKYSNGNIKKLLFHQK
UniProt P45481: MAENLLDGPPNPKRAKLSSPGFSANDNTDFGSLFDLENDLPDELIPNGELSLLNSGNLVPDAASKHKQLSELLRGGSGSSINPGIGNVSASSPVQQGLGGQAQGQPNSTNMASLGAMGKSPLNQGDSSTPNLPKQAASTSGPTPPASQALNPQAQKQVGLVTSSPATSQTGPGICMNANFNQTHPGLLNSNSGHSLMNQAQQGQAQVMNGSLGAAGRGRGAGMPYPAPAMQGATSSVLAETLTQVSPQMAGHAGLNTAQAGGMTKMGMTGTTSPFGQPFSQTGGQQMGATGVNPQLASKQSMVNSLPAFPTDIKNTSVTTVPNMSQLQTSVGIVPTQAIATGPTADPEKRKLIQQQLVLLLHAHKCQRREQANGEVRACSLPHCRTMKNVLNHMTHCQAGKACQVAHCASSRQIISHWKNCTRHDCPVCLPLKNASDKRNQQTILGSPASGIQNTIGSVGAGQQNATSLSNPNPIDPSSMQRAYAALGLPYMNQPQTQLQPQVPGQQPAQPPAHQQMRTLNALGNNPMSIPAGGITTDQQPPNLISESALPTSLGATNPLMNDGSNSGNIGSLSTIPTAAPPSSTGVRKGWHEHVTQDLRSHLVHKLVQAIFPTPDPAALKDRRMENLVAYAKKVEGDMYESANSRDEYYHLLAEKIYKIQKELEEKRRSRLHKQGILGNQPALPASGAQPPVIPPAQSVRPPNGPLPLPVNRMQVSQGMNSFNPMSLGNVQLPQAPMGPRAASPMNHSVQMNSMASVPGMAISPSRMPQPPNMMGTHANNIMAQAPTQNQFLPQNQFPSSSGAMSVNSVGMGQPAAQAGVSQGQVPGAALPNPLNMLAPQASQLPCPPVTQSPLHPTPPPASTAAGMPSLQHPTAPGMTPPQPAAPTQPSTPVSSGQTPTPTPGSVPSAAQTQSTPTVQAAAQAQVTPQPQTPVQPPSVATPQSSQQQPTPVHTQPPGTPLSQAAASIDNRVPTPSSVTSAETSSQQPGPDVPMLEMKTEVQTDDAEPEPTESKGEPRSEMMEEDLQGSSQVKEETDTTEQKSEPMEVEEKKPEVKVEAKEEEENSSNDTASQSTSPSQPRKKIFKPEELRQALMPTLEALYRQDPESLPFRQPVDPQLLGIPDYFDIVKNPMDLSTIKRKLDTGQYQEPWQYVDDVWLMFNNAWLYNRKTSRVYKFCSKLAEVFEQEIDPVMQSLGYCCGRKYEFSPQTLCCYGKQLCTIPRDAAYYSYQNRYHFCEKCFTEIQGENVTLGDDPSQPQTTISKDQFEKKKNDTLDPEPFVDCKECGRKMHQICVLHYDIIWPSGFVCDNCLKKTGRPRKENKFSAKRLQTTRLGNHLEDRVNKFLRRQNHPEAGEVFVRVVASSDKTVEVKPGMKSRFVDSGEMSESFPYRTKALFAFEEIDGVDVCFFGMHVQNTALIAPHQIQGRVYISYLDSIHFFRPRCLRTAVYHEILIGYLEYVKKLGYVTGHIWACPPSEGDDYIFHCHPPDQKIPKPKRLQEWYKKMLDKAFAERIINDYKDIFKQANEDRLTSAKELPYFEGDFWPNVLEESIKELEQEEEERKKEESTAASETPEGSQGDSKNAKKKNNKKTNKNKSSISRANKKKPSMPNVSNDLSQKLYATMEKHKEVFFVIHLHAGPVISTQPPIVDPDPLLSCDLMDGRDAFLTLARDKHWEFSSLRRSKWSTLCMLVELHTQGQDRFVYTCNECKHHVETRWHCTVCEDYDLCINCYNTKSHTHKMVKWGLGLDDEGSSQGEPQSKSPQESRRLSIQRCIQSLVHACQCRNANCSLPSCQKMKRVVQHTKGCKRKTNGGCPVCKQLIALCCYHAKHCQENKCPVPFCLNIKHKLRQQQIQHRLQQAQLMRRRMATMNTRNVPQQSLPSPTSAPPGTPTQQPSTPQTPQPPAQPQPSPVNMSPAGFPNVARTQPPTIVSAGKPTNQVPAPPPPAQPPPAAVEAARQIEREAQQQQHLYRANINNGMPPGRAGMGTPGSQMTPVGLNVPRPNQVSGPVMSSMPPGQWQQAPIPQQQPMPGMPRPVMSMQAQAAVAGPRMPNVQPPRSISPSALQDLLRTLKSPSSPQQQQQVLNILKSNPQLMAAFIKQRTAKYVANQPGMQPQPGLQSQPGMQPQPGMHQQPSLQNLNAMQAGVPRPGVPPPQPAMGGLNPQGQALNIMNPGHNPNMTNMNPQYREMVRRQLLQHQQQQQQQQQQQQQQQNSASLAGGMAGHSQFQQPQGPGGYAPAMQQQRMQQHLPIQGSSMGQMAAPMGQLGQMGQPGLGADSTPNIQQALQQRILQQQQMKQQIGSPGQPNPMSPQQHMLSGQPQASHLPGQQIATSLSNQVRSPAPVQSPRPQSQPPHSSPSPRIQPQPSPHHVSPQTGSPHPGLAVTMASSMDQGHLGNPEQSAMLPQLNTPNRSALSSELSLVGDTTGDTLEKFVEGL
UniProt Q3TKT4: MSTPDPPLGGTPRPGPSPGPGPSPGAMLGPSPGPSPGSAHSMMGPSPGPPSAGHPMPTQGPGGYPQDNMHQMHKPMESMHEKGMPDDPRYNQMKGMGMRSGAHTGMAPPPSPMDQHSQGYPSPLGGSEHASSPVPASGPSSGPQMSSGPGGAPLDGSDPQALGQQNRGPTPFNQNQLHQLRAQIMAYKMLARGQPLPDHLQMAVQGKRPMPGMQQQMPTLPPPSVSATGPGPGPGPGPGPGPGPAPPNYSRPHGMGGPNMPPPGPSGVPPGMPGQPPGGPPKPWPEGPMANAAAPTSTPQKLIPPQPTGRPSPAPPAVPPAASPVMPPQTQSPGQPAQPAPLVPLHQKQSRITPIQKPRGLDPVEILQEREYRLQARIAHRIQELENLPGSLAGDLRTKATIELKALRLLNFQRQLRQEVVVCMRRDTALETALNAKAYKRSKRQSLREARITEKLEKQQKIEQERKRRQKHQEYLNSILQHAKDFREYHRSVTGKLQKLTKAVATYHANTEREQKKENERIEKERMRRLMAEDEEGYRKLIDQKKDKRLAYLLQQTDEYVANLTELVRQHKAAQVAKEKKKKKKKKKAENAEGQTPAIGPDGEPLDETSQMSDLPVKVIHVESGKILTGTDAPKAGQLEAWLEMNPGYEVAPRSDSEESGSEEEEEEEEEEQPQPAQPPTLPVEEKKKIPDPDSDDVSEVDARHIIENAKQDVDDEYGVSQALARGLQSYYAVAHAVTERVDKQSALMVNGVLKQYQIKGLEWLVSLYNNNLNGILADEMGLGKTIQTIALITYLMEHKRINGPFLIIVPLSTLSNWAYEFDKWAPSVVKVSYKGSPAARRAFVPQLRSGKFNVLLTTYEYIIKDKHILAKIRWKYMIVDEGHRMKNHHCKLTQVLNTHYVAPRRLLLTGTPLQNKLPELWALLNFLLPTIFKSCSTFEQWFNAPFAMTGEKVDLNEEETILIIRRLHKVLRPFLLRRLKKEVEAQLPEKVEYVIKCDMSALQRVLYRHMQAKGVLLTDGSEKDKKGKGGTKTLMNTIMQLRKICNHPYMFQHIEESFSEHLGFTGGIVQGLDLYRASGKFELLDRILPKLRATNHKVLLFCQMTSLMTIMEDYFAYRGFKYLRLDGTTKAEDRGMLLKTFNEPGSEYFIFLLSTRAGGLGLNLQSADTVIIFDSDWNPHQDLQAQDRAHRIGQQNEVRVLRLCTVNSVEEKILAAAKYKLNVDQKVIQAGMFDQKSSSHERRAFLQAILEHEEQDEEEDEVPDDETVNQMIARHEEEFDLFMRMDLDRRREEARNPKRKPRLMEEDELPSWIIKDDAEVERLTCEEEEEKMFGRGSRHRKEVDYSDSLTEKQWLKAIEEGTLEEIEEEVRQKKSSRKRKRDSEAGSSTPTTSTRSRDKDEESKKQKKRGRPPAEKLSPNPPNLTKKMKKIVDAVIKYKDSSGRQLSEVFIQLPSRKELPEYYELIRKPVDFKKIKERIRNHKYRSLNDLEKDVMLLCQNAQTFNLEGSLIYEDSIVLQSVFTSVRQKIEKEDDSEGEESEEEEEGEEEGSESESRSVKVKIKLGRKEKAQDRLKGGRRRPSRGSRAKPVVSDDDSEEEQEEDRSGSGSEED
UniProt Q91ZW3: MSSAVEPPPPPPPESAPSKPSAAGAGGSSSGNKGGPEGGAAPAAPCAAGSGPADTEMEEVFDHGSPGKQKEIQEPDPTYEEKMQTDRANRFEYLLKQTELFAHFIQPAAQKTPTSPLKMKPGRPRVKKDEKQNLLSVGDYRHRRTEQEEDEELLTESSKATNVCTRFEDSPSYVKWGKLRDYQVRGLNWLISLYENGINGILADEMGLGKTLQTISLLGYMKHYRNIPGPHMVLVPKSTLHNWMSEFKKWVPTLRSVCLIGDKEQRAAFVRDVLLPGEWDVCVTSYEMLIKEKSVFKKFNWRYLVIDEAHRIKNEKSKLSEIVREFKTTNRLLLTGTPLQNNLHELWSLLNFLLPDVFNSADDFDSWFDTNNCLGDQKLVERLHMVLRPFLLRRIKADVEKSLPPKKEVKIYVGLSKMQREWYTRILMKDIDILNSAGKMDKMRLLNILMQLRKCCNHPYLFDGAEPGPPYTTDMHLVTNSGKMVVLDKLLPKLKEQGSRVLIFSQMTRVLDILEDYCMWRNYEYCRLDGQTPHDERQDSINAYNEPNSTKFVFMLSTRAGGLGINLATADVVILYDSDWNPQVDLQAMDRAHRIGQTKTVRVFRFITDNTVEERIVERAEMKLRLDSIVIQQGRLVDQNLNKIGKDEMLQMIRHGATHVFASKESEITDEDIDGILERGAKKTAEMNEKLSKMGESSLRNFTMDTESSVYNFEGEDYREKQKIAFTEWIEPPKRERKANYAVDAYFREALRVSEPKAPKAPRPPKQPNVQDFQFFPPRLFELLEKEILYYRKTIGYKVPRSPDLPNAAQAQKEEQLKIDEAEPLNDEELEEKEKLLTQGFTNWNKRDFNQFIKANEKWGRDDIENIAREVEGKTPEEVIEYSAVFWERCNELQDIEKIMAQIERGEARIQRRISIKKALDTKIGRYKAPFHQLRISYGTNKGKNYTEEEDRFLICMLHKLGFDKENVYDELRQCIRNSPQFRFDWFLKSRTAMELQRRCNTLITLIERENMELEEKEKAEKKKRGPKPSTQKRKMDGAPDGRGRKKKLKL
UniProt Q99JR8: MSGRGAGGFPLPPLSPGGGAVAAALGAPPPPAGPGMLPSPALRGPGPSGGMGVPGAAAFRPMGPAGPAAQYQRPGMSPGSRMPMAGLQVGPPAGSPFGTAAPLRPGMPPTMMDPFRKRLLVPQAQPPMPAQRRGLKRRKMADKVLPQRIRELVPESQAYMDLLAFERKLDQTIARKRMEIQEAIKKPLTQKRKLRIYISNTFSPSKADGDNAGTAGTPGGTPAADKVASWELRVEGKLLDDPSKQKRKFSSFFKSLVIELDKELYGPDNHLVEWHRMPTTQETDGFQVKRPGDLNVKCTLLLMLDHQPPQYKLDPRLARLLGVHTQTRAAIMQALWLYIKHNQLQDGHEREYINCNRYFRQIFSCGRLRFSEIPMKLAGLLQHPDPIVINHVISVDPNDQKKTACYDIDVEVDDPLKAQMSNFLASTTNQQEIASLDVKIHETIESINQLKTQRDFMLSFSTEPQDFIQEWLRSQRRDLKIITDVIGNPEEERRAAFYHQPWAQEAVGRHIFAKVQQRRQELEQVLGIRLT

B1: PPP5c (enzyme, UniProt Q60676 1-499)
chain: MAMAEGERTECAETPRDEPPADGTLKRAEELKTQANDYFKAKDYENAIKFYSQAIELNPGNAIYYGNRSLAYLRTECYGYALGDATRAIELDKKYIKGYYRRAASNMALGKFRAALRDYETVVKVKPNDKDAKMKYQECSKIVKQKAFERAIAGDEHRRSVVDSLDIESMTIEDEYSGPKLEDGKVTITFMKDLMQWYKDQKKLHRKCAYQILVQVKEVLCKLSTLVETTLKETEKITVCGDTHGQFYDLLNIFELNGLPSETNPYIFNGDFVDRGSFSVEVILTLFGFKLLYPDHFHLLRGNHETDNMNQIYGFEGEVKAKYTAQMYELFSEVFEWLPLAQCINGKVLIMHGGLFSEDGVTLDDIRKIERNRQPPDSGPMCDLLWSDPQPQNGRSVSKRGVSCQFGPDVTKAFLEENQLDYIIRSHEVKAEGYEVAHGGRCVTVFSAPNYCDQMGNKASYIHLQGSDLRPQFHQFTAVPHPNVKPMAYANTLLQLGMM
B2: NRIP1 (protein, UniProt Q8CBD1 1-1161)
chain: MTHGEELGSDVHQDSIVLTYLEGLLMHQAAGGSGTAINKKSAGHKEEDQNFNLSGSAFPSCQSNGPTVSTQTYQGSGMLHLKKARLLQSSEDWNAAKRKRLSDSIVNLNVKKEALLAGMVDSVPKGKQDSTLLASLLQSFSSRLQTVALSQQIRQSLKEQGYALSHESLKVEKDLRCYGVASSHLKTLLKKSKTKDQKSGPTLPDVTPNLIRDSFVESSHPAVGQSGTKVMSEPLSCAARLQAVASMVEKRASPAASPKPSVACSQLALLLSSEAHLQQYSREHALKTQNAHQVASERLAAMARLQENGQKDVGSSQLSKGVSGHLNGQARALPASKLVANKNNAATFQSPMGVVPSSPKNTSYKNSLERNNLKQAANNSLLLHLLKSQTIPTPMNGHSQNERASSFESSTPTTIDEYSDNNPSFTDDSSGDESSYSNCVPIDLSCKHRIEKPEAERPVSLENLTQSLLNTWDPKIPGVDIKEDQDTSTNSKLNSHQKVTLLQLLLGHKSEETVERNASPQDIHSDGTKFSPQNYTRTSVIESPSTNRTTPVSTPPLYTASQAESPINLSQHSLVIKWNSPPYACSTPASKLTNTAPSHLMDLTKGKESQAEKPAPSEGAQNSATFSASKLLQNLAQCGLQSSGPGEEQRPCKQLLSGNPDKPLGLIDRLNSPLLSNKTNAAEESKAFSSQPAGPEPGLPGCEIENLLERRTVLQLLLGNSSKGKNEKKEKTPARDEAPQEHSERAANEQILMVKIKSEPCDDFQTHNTNLPLNHDAKSAPFLGVTPAIHRSTAALPVSEDFKSEPASPQDFSFSKNGLLSRLLRQNQESYPADEQDKSHRNSELPTLESKNICMVPKKRKLYTEPLENPFKKMKNTAVDTANHHSGPEVLYGSLLHQEELKFSRNELDYKYPAGHSSASDGDHRSWARESKSFNVLKQLLLSENCVRDLSPHRSDSVPDTKKKGHKNNAPGSKPEFGISSLNGLMYSSPQPGSCVTDHRTFSYPGMVKTPLSPPFPEHLGCVGSRPEPGLLNGCSVPGEKGPIKWVIADMDKNEYEKDSPRLTKTNPILYYMLQKGGGNSVTTQETQDKDIWREPASAESLSQVTVKEELLPAAETKASFFNLRSPYNSHMGNNASRPHSTNGEVYGLLGNALTIKKESE
B3: Grainyhead-like (GRHL)1 (protein, UniProt Q921D9 1-618)
chain: MTQEYDNKRPVLVLQNEALYPQRRSYTSEDEAWKSFLENPLTAATKAMMSINGDEDSAAALGLLYDYYKVPRERRSSAVKPEGEHPEPEHSKRNSIPNVTEQPLISAGENRVQVLKNVPFNIVLPHSNQLGIDKRGHLTAPDTTVTVSIATMPTHSIKTEIQPHGFAVGIPPAVYHSEPTERVVVFDRSLSTDQFSSGTQPPNAQRRTPDSTFSETFKEGVQEVFFPSELSLRMPGMNSEDYVFDNVSGNNFEYTLEASKSLRQKQGDSTMTYLNKGQFYPVTLKEGSSNEGIHHPISKVRSVIMVVFAEDKSREDQLRHWKYWHSRQHTAKQRCIDIADYKESFNTISNIEEIAYNAISFTWDINDEAKVFISVNCLSTDFSSQKGVKGLPLNIQIDTYSYNNRSNKPVHRAYCQIKVFCDKGAERKIRDEERKQSKRKVSDVKVQLLPSHKRTDITVFKPFLDLDTQPVLFIPDVHFTNLQRGSHVLSLPSEELEGEGSVLKRGPFGTEDDFGVPPPAKLTRTEEPKRVLLYVRKESEEVFDALMLKTPSLKGLMEAISDKYDVPHDKIGKIFKKCKKGILVNMDDNIVKHYSNEDTFQLQIEEAGGSYKLTLTEI

Results are given in words; binding and its absence hold for the method and conditions named. In cells and extracts the contact can be indirect. Here binding means that the protein was enriched with, or labelled near, the bait; the list need not be complete.

The target in this assay is glucocorticoid receptor (GR/NR3C1) (mouse (endogenous in immortalized mouse keratinocytes)) (UniProt P06537). As to the kind of experiment: affinity purification with mass spectrometry; RIME: mouse keratinocytes treated with vehicle (EtOH) or 100 nM Dex for 1 h, cross-linked with 1% formaldehyde; sonicated nuclear lysates immunoprecipitated overnight with GR antibody (sc-1004) or rabbit IgG on Protein A Dynabeads; 7 washes with RIPA buffer (0.5 M LiCl); on-bead trypsin digest, timsTOF Pro; proteins also found in IgG control excluded.
Consider ARID1A (from UniProt A2BH40 1-2283), for which the binding entry is listed as “binds”.

As to CBP (from UniProt P45481 1-2441), the binding entry is listed as “binds”.

For the molecule “Krüppel-like factor (KLF)5 (from UniProt Q9Z0Z7 1-446)”, the binding result is recorded as “binds”.

Regarding RUNX1 (from UniProt Q03347 1-451), the binding entry was “binds”.

On to SMARCA4 (from UniProt Q3TKT4 1-1613), for which the binding result was “binds”.

Turning to SMARCA5 (from UniProt Q91ZW3 1-1051), the binding entry is given as “binds”.

As to SMARCD2 (from UniProt Q99JR8 1-531), the binding result is recorded as “binds”.

On to B1, for which the binding result is “binds”.

Turning to B2, the binding result is reported as “binds”.

Consider B3, for which the binding entry was “binds”.
